Reference: PubChem BioAssay AID1508615 (Milbrandt Lab, Department of Genetics, Washington …, 2020)
About 20 (1%) of roughly 1,600 compounds were called active.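 How the source made its calls: active means ratio of uncleaved NAD to its breakdown product ADP-ribose above 4, meaning the enzyme was inhibited; inactive means the rest.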 Some of the results follow.

Sequences of proteins named here, by UniProt entry; tags and fusion partners are left off. A change or cut given only in a name is not applied to a line headed by its entry.
UniProt Q6SZW1: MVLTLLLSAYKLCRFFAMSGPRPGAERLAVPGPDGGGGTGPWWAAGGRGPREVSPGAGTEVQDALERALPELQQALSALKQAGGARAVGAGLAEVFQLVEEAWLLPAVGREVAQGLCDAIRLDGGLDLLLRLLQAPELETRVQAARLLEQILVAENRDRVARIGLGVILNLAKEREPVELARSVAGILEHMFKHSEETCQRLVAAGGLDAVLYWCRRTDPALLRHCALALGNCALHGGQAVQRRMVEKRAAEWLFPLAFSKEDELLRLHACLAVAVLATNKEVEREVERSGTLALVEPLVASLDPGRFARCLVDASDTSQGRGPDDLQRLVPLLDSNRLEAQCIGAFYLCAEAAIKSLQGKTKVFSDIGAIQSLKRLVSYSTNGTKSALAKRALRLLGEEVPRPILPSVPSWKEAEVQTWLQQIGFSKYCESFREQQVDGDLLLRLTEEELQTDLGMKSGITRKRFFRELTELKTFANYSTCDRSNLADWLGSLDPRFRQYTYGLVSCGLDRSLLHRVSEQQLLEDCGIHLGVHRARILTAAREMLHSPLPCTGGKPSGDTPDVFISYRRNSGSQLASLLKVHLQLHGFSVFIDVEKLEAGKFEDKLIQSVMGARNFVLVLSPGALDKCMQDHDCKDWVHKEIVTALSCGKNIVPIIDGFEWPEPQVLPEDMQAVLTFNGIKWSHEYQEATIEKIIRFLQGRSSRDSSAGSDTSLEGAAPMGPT

Target: NAD(+) hydrolase SARM1 (Homo sapiens) (UniProt Q6SZW1)
Test: inhibition of SAM-TIR NAD hydrolysis to ADPR – cell lysate, HPLC readout, primary screen (AID 1508615);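 further: substrate NAD at 5 µM with 60 min at 37 °C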
Conditions: HEK293T SAM-TIR lysate, NAD/ADPR ratio by HPLC; at 5 µM; active compounds read high

NAD/ADPR ratio, inactive:
OC(COc1ccc(Cl)cc1)CN1CCN(c2cccc(Cl)c2)CC1 (stereo unspecified) 3, CCOC(=O)/C(=N\O)C1=CSC2=NNC(C)(C)N12 3, CCCCOc1ccc(OC(=O)Nc2cc(Cl)ccc2OC)cc1 3, Oc1ccc(Cc2ccc(Cl)cc2)c(O)c1 3, CCOC(=O)c1c(C)nc(C)c(C(=O)OCC)c1-c1ccc(OC)cc1 3, CSc1ncc2ncn(C3OC(CO)C(O)C3O)c2n1 (stereo unspecified) 3, COc1ccc2c3c([nH]c2c1)C1CC2C(CC(O)C(OC)C2C(=O)O)CN1CC3 (stereo unspecified) 3, CC(=O)Nc1nc(C)c(CCC2OCCO2)c(=O)[nH]1 3, CCC(CNc1cc(OC)cc2cccnc12)NC1CCCCC1 (stereo unspecified) 3, Clc1ccc(Nc2nnc(-c3ccc4c(c3)OCO4)o2)cc1 3, CCOC(=O)CC(=O)NC(C)(C)CCCCC(C)(C)NC(=O)CC(=O)OCC 3, C(=C\c1ccncc1)/c1ccncc1 3, NC(N)=NC(N)=Nc1ccc(O)cc1 3, Cn1c2c(c(=O)n(C)c1=O)NC1(N2)C(=O)Nc2ccccc21 (stereo unspecified) 3, COc1ccc(/C=C2\CCOC2=O)cc1 3, Cc1nnc2nc(-c3ccccc3)nc(-c3ccccc3)n12 3, CC(=O)NCC1(O)CCCC(C)C1 (stereo unspecified) 3, C=CCc1ccccc1OCC(=O)O 3, CSc1ccc2c(c1)C(N1CCN(C)CC1)Cc1ccccc1S2 (stereo unspecified) 3, O/N=C(/c1ccccc1)c1ccc2c3c(cccc13)CC2 3, CCOCc1cc(=O)[nH]c(SC)n1 3, CC(=O)n1cc(C2CC(=O)OC3=C2CC(=O)C(C)(C)C3)c2ccccc21 (stereo unspecified) 3, CC(=O)Nc1cc(NC(C)=O)ncn1 3, Cc1c(C#N)c2n(c1C)CCCC(=O)N2 3, OC(COc1ccccc1)CN1CCN(c2ccccc2)CC1 (stereo unspecified) 3, C1=Cc2ccccc2Nc2ccccc21 3, CC(=O)NCC(O)c1ccc([N+](=O)[O-])cc1 (stereo unspecified) 3, O=c1nccc(SCc2ccc(Cl)cc2Cl)[nH]1 3, Cc1cc(C)c(C#N)c(Sc2nc(C)c([N+](=O)[O-])c(C)c2C#N)n1 3, CC(=O)OC1COC(OC(C)=O)CO1 (stereo unspecified) 3, Oc1ccc2ccc3[nH]cnc3c2c1 3, Cn1c(=O)c2c(nc(Oc3ccccc3)n2C)n(C)c1=O 3, NC(=Nc1nc(-c2ccccn2)cc2ccccc12)c1ccccn1 3, O=C(O)c1cncc(Br)c1 3, O=C(NCc1ccco1)Nc1cccc([N+](=O)[O-])c1 3, O=c1[nH]c(=S)[nH]cc1Oc1ccc(Cl)cc1Cl 3, O=C(Nc1ncc([N+](=O)[O-])s1)c1cccc([N+](=O)[O-])c1 3, CCN1CCCC(Sc2nc3c([nH]2)c(=S)n(C)c(=O)n3C)C1 (stereo unspecified) 3, C=CCNc1ncnc2sc(SC)nc12 3, N#CCCCCN1CCCC1 3, Cc1ccccc1NC(=O)Oc1cccc(OC(=O)c2ccccc2)c1 3, CC(C)=NNc1ncnc2nc[nH]c12 3, CCC/C(C)=C/c1ccc(CC)cn1 3, CC1(c2ccc3ccccc3c2)CCC(=O)O1 (stereo unspecified) 3, CCCCCc1cc(=O)[nH]c(=S)[nH]1 3, COC1OC(CO)C(N=C(C)C)C1O (stereo unspecified) 3, O=c1nc2onnc2c(/C=N\O)[nH]1 3, CC(C)(C)C(=O)/C=C/c1ccc(Oc2ccccc2)cc1 3.5, NC(=O)Cc1ccc2c(c1)[nH]c1ccccc12 3, O=c1cc2oc3cc(O)c(O)cc3c(-c3ccccc3O)c-2cc1O 3, NC(=O)NC(=O)c1nccnc1C(=O)O 3, Cc1ccc(CC#N)c(-c2c(CC#N)ccc(C)c2C)c1C 3, C=CCOc1c(CCC)cc(CCC)cc1C(N)=O 3, CCC(CC)c1ncc[nH]1 3, Cc1cccc(N2CCN(CC(O)COc3ccccc3Cl)CC2)c1 (stereo unspecified) 3, CC(C)Cc1nnc(N)s1 3, CN(C)C=Nc1ccc(Cl)c(Cl)c1 3, CC(=O)c1c(O)c(C)c(O)c2c1OC1=CC(=O)/C(=C(/C)N)C(=O)C12C (stereo unspecified) 3, CC(C1=C(CCN(C)C)Cc2ccccc21)c1ccccn1 (stereo unspecified) 3, Cn1nc(NC(=O)C(F)(F)F)c2ncc(-c3ccc(Cl)cc3)nc21 3

NAD/ADPR ratio, active:
Cc1cc(O)c(-c2cc(O)c(C)cc2O)cc1O 5.8
